{
  "source": "paper PMC8634136",
  "about": "(The EMBO Journal, 2021)",
  "binders": {"B1": {"name": "Mrc1 (protein, UniProt P25588 1-1096)", "chain": "MDDALHALSSLTAKKRTTTYKKVAVPILDENDNTNGNGPNDIDNPPELTGNGFLFANATLNRVKNRLEGKKAPEQNHNNGKDRSENSLPTQLISNLYDGGEELEKSEVKDNSYSEKNVSSSFTQTQRIPVSIQQDKVFNVPIHSVNDGKPTQLIKEDGLVNETSQALKTPLTTGRPGATQRIDSSGATSQTQPIKSIEPQSQIITTSSNHSNALSPKIPIIPTELIGTSPLFQSIQNRGPDTQMDVPPQTAHDEDKTQAIGIPQATHQEQKTQIDTVAQTLQDEVPHTLKIREIQSELASEDSKREKARNVEYKKPQKPIPTKKFFSKESFLADFDDSSSNEDDDIKLENAHPKPVQNDDELHENKSVELNLTDETRINEKRVPLLSSYANNLKREIDSSKCITLDLDSDSDEYGDDDMDSIKLSKDESVLPISQLSKATILNLKARLSKQNQKLSQRPNKSKDPKVDHNVLLNTLRKASRKQILDHQKEVIETKGLKLEDMAKEKEIVENLLEQEILRNKRIRQKEKRREKLEENDFQLNAHDSGSDSGSESSGFALSGNEIADYESSGSENDNRRESDSEKEDDEIILKQKKSHHVKHIINESDSDTEVEAKPKEKADESLPKRIAINLGHYGDNIGEDTDKFQETNVLDTQNIEEVMAERNTIENEVKDDVYVNEEADEAIRRQLIDKEKLQLKQKEKEHEAKIKELKKRGVTNFFEMEAEESEDEWHGIGGADGEGSDDYDSDLEKMIDDYSKNNFNPHEIREMLAAENKEMDIKMINKILYDIKNGGFRNKRAKNSLELELSDDDEDDVLQQYRLKRRELMRKRRLEIGDDAKLVKNPKSSAFFESMVEDIIEYKNPFGAEEEYNLDITSTATDLDTQDNSINVGDNTGNNEQKPVDQKNKKVIISEDFVQKSLSFLKSNNYEDFETDKELSRIQHGNDEAIEDLYTLKQNSSIKSFTNSQTDSTTSKTVNTIIDLEKRPEDEDEVENGDTSLVGVFKHPSIIKSFASRTDINDKFKEGNKTVKILKSYKTVGSSKASITYMGKTRKLIAPKRKTEGSHRYHHDHHNKKMKMKTKTKSNKLFESGQDSFDN"}},
  "biological_target": "T1, Tof1 (S. cerevisiae) (UniProt P53840)",
  "T1 sequence": "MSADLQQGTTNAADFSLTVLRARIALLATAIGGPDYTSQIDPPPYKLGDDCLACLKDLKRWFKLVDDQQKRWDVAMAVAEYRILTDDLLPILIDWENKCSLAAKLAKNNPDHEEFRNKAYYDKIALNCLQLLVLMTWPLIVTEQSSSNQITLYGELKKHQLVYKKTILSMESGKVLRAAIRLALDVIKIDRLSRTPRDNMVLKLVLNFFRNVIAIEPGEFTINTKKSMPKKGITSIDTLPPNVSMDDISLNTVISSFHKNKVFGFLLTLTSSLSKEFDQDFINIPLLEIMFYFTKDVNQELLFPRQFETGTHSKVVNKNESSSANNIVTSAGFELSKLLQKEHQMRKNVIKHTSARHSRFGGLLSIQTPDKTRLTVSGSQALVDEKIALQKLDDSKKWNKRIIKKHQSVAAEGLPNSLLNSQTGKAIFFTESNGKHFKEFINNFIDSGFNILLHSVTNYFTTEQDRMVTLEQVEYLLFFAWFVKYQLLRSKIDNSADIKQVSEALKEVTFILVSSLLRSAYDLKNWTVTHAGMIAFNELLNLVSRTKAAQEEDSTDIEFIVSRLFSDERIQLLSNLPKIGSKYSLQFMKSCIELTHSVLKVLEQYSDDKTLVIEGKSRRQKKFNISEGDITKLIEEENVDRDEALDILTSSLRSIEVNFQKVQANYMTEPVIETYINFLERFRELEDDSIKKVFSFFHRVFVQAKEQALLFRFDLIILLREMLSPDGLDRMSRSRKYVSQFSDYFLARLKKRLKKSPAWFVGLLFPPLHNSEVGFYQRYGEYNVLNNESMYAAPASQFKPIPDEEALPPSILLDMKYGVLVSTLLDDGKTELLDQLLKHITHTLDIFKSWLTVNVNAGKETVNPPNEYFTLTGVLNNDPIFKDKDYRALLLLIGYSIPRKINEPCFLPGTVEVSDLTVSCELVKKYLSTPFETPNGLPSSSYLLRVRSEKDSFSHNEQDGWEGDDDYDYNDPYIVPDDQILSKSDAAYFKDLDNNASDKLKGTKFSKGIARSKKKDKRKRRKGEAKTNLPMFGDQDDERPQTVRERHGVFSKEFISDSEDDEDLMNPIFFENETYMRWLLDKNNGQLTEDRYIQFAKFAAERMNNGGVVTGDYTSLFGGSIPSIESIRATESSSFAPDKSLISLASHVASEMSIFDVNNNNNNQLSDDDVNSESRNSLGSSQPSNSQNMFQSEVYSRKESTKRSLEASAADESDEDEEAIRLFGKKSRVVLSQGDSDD",
  "assay": "cryo-EM structure; re-inspection of the authors' published S. cerevisiae replisome map; AlphaFold prediction of Mrc1 residues 325-335 docked into unmodelled density on Tof1",
  "note": "Results are given in words; binding and its absence hold for the method and conditions named. Some results given as binding are weak or reduced against the parent protein; the word gives no strength.",
  "data": [
    {"binder": "B1", "values": [
      {"measurement": "binding", "result": "binds"}
    ]}
  ]
}
